# PubChem BioAssay AID238 (DTP/NCI, 2004)
# The list is a part of this screen's results and no random one: its compounds were picked by chemical class. Other doses and runs of a compound may be missing. T/C is the treated group as % of the vehicle group. Where survival is the endpoint, the PubChem record calls one and a half times the control and up active, and a quarter to a half above the control has no call in these data; cut-offs in other NCI protocols can differ. Some T/C values are marked as having no survivor count here; that says nothing about deaths at the dose. Schedules are NCI's codes, read here as Q, the interval in days (D) or hours (H), X, the number of doses. Some entries were tested several times; the results are listed from low to high.
# Tested on: CAF1 mice, leiomyosarcoma No.2 ip, survival T/C%
# Test: NCI In Vivo Anticancer Drug Screen. Data for tumor model Leiomyosarcoma (No. 2) (intraperitoneal) in CAF1 mice
# Conditions: T/C endpoint: mean survival time, schedule: Q01DX010 (ip), vehicle: saline, higher T/C = longer survival
# Procedure: The antitumor activity of compounds was measured in mice bearing transplantable tumors. Survival or tumor size were measured and the results are expressed as the measurement made in the treated group (T) divided by the measurement made in the vehicle treated control group (C). The tumor model used in this assay is Leiomyosarcoma (No. 2) (intraperitoneal) in CAF1 mice
smiles,measurement,setting,value
ClCCN(CCCl)Cc1nc2ccccc2[nH]1,T/C,dose: 0.63 mg/kg/injection,113 % of control [survivor count not shown]
same,T/C,dose: 1.25 mg/kg/injection,144 [survivor count not shown] and 150 % of control [survivor count not shown]
same,T/C,dose: 2.5 mg/kg/injection,158 [survivor count not shown] and 240 % of control [survivor count not shown]
same,T/C,dose: 5.0 mg/kg/injection,179 % of control [survivor count not shown]
ClCCNCCCl,T/C,dose: 18.8 mg/kg/injection,189 [survivor count not shown] and 241 % of control [survivor count not shown]
same,T/C,dose: 37.5 mg/kg/injection,282 [survivor count not shown] and 300 % of control [survivor count not shown]
O=C(O)CN(CCCl)CCCl,T/C,dose: 0.63 mg/kg/injection,125 [survivor count not shown] and 237 % of control [survivor count not shown]
same,T/C,dose: 1.25 mg/kg/injection,200 [survivor count not shown] and 237 % of control [survivor count not shown]
same,T/C,dose: 2.5 mg/kg/injection,141 [survivor count not shown] and 300 % of control [survivor count not shown]
same,T/C,dose: 5.0 mg/kg/injection,133 [survivor count not shown] and 220 % of control [survivor count not shown]
NC1CCCCC1.NP(=O)(O)N(CCCl)CCCl,T/C,dose: 15.6 mg/kg/injection,127 % of control [survivor count not shown]
same,T/C,dose: 31.3 mg/kg/injection,300 % of control [survivor count not shown]
same,T/C,dose: 62.5 mg/kg/injection,300 % of control [survivor count not shown]
CC(C(=O)O)N(CCCl)CCCl (stereo unspecified),T/C,dose: 0.5 mg/kg/injection,145 [survivor count not shown] and 195 % of control [survivor count not shown]
same,T/C,dose: 1.0 mg/kg/injection,204 [survivor count not shown] and 212 % of control [survivor count not shown]
same,T/C,dose: 2.0 mg/kg/injection,175 [survivor count not shown] and 266 % of control [survivor count not shown]
same,T/C,dose: 4.0 mg/kg/injection,133 [survivor count not shown] and 137 % of control [survivor count not shown]
NC(Cc1cccc(N(CCCl)CCCl)c1)C(=O)O (stereo unspecified),T/C,dose: 0.63 mg/kg/injection,144 [survivor count not shown] and 209 % of control [survivor count not shown]
same,T/C,dose: 1.25 mg/kg/injection,210 [survivor count not shown] and 263 % of control [survivor count not shown]
same,T/C,dose: 2.5 mg/kg/injection,179 [survivor count not shown] and 250 % of control [survivor count not shown]
same,T/C,dose: 5.0 mg/kg/injection,89 % of control [survivor count not shown]
